According to patent US12227713B2, “Polysiloxane hydraulic fluids” (THE BOEING COMPANY, priority 2016, dated 2025):
For at least one compound, name, drawing or mass did not settle the structure.

Assay: Viscosity (ASTM D445)
Type: physicochemical
Description: The viscosity may be determined using the protocol in ASTM D445, and for example ASTM D445FL1 for low temperature measurements.

SMILES | Room Temp (25 C.) Viscosity (cP) | 38 C. Viscosity (cP) | −54 C. Viscosity (cP)
CCCCCCCCP(=O)(OCCCC)OCCCC [DiButyl Octane Phosphonate (AP30), DiButyl Octane Phosphonate] | 5.83 ± 0.01 | 4.16 ± 0.01 | 510.1 ± 6.3 cP
CCCCCCCCP(=O)(OCC)OCC [DiEthyl Octane Phosphonate (AP26), Diethyl Octane Phosphonate] | 4.64 ± 0.01 | 3.39 ± 0.01 | Frozen 6 hr
